No constants are given. Whether binding was seen depends on the method and setting. A result given as binding can be weak or reduced; the word gives no strength. Where a sequence is shown, tags or fusion partners need not be part of it.
What was measured:
[1] = molecular target: integrin αv in which 3HA is tagged at the C-terminus; test: immunoprecipitation
[2] = molecular target: integrin β3 in which 3HA is tagged at the C-terminus; test: immunoprecipitation
[3] = molecular target: integrin αv in which 3HA is tagged at the C-terminus; test: immunoprecipitation after overexpression in 293T or Raw 264.7 cells
[4] = molecular target: integrin β3 in which 3HA is tagged at the C-terminus; test: as above
[5] = molecular target: DC-Stamp tagged with 3Flag in N-terminus; test: immunoprecipitation (FIG. 12I)
[6] = molecular target: Siglec-15 tagged with 3Flag in C-terminus; test: immunoprecipitation (FIG. 12I)
[7] = molecular target: DC-Stamp tagged with 3Flag in N-terminus; test: immunoprecipitation, 293T cells
[8] = molecular target: Siglec-15 tagged with 3Flag in C-terminus; test: immunoprecipitation, 293T cells

Measured: binding

B1: wild-type TM4SF19 in which 3Flag was tagged at the N-terminus (human TM4SF19) (other)
chain: MVSSPCTQASSRTCSRILGLSLGTAALFAAGANVALLLPNWDVTYLLRGLLGRHAMLGTGLWGGGLMVLTAAILISLMGWRYGCFSKSGLCRSVLTALLSGGLALLGALICFVTSGVALKDGPFCMFDVSSFNQTQAWKYGYPFKDLHSRNYLYDRSLWNSVCLEPSAAVVWHVSLFSALLCISLLQLLLVVVHVINSLLGLFCSLCEK
notes: Overexpressed in 293T cells (for the integrins: 293T or Raw 264.7 cells) and tested by immunoprecipitation; also called 3Flag-hTM4SF19; TM4SF19 wt; not shown: 3Flag tag at the N-terminus
binds: [1] | [2] | [3] | [4]

B2: TM4SF19 in which 3HA was tagged at the N-terminus (human TM4SF19, NP_612470.2 isoform 1) (protein, not shown: small tags and cut ends)
chain: MVSSPCTQASSRTCSRILGLSLGTAALFAAGANVALLLPNWDVTYLLRGLLGRHAMLGTGLWGGGLMVLTAAILISLMGWRYGCFSKSGLCRSVLTALLSGGLALLGALICFVTSGVALKDGPFCMFDVSSFNQTQAWKYGYPFKDLHSRNYLYDRSLWNSVCLEPSAAVVWHVSLFSALLCISLLQLLLVVVHVINSLLGLFCSLCEK
binds: [5] | [6] | [7] | [8]

Source: patent US20240132571A1 (MEDPACTO, published 2024)
